According to patent US20020064855A1:
Results are given in words; binding and its absence hold for the method and conditions named. Binding seen in cells or lysates may run through a third protein. Some entries that bind do so weakly or less than the wild type. Where a sequence is shown, tags or fusion partners need not be part of it.

Target: T1, AA4 (mouse) (UniProt O89103)
T1 sequence (chain, glycosylated (mature form 130 kDa, precursor 105 kDa)): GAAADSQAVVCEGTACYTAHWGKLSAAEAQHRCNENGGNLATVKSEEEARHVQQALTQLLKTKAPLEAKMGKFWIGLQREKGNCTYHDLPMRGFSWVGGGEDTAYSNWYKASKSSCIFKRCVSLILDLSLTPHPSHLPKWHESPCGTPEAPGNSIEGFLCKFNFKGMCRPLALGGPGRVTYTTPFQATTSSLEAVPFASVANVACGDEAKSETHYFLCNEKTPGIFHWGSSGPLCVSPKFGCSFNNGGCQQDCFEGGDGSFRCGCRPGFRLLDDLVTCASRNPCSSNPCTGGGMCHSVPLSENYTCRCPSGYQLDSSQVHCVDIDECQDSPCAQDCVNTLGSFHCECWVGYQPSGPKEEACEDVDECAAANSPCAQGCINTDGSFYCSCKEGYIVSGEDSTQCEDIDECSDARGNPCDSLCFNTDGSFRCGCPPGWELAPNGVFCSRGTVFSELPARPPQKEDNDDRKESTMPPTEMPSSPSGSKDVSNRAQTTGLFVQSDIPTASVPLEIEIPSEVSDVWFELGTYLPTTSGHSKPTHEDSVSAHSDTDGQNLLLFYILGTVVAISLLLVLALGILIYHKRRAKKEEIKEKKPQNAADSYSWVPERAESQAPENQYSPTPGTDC
Assay: coprecipitation by protein A from NIH 3T3 cells stably producing AA4 and coexpressing AA4-Fc; equimolar amounts of AA4 and AA4-Fc were coprecipitated

- binding: binds
B1: AA4-Fc fusion protein (Fc fusion, not shown: a dimerising Fc or GST)
chain: ADSQAVVCEGTACYTAHWGKLSAAEAQHRCNENGGNLATVKSEEEARHVQQALTQLLKTKAPLEAKMGKFWIGLQREKGNCTYHDLPMRGFSWVGGGEDTAYSNWYKASKSSCIFKRCVSLILDLSLTPHPSHLPKWHESPCGTPEAPGNSIEGFLCKFNFKGMCRPLALGGPGRVTYTTPFQATTSSLEAVPFASVANVACGDEAKSETHYFLCNEKTPGIFHWGSSGPLCVSPKFGCSFNNGGCQQDCFEGGDGSFRCGCRPGFRLLDDLVTCASRNPCSSNPCTGGGMCHSVPLSENYTCRCPSGYQLDSSQVHCVDIDECQDSPCAQDCVNTLGSFHCECWVGYQPSGPKEEACEDVDECAAANSPCAQGCINTDGSFYCSCKEGYIVSGEDSTQCEDIDECSDARGNPCDSLCFNTDGSFRCGCPPGWELAPNGVFCSRGTVFSELPARPPQKEDNDDRKESTMPPTEMPSSPSGSKDVSNRAQTTGLFVQSDIPTASVPLEIEIPSEVSDVWFELGTYLPTTSGHSKPTHEDSVSAHSDTDGQN
